The numbers were not newly measured in US20220160666A1, “COMPOSITIONS FOR USE IN SURGERY” (BTG INTERNATIONAL LIMITED, priority 2004, published 2022), which cites them from elsewhere.

The structures appear in SMILES notation.

This series has as its system brain field potentials (EEG power spectrum). Particulars: rats; sedative analgesics; Dimpfel et al, 1986; cited from earlier work.

As for `CN1C(=O)CN=C(c2ccccc2)c2cc(Cl)ccc21` [diazepam], the “change of EEG power in the beta range” value is “power increases in the beta range of varying degrees”. For `CN1CC[C@]23c4c5ccc(O)c4O[C@H]2[C@@H](O)C=C[C@H]3[C@H]1C5` [morphine], the “change of EEG power in the beta range” value is on record as “power increases in the beta range of varying degrees”.
